PubChem BioAssay AID1259282 | Sanger Institute – 2017
Shown is an unselected part of 794 reagents. 11 of them (1.4%) were called active. 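Calls flag knock-downs that lower viability without drug; drug synergy appears only in the synergy scores; exposure time not stated.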 A number with no mark means an inactive call. Viability is capped at 1. Not all columns of the deposit are shown. Not stated in the record: the amount of reagent, the time to read-out.

Screen: 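Kinases whose loss reduces viability on their own or with anchor drugs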 (primary screen)
System: DIFI human colorectal cancer cell line
Reagent: siRNA pool against human genes
Treatment: anchor drug at a mild dose (BYL719 1 µM, cetuximab 5 µg/ml, trametinib 10 nM) or DMSO vehicle; exposure time not given
Measured: 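Viability relative to non-targeting pool wells, replicate mean, in DMSO or low-dose BYL719, cetuximab or trametinib; robust z-score without drug; synergy score per drug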
Scale: robust z-score, knock-down alone: higher = more viable cells than typical knock-down; viability, knock-down alone: higher = more viable cells
Call rule: 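a knock-down is called essential if its DMSO robust z-score is under -3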
Calls: active = essential (knock-down alone, z below -3); inactive = not essential

| Gene | robust z-score, knock-down alone | viability, knock-down alone (fraction of control) |
| --- | --- | --- |
| PLK1 | -2.96 | 0.466 |
| PMVK | 0.715 | 1 |
| MINK1 | 0.715 | 1 |
| EGFR | -3.54 (active) | 0.382 |
| ITK | 0.715 | 1 |
| DDR1 | 0.443 | 0.96 |
| CAMK2N1 | -2.87 | 0.479 |
| MAPK1 | -0.154 | 0.874 |
| RPS6KB1 | -1.25 | 0.714 |
| WNK4 | 0.715 | 1 |
| SRC | 0.715 | 1 |

3 of these entries, set out differently:
{"Gene": "PMVK", "robust z-score, knock-down alone": 0.715, "viability, knock-down alone (fraction of control)": 1}
{"Gene": "MINK1", "robust z-score, knock-down alone": 0.715, "viability, knock-down alone (fraction of control)": 1}
{"Gene": "EGFR", "robust z-score, knock-down alone": "-3.54 (active)", "viability, knock-down alone (fraction of control)": 0.382}

The list goes on:
| Gene | robust z-score, knock-down alone | viability, knock-down alone (fraction of control) |
| --- | --- | --- |
| EPHA7 | -1.91 | 0.619 |
| BRD2 | 0.715 | 1 |
| CKMT1B | -0.169 | 0.872 |
| LYN | 0.693 | 0.997 |
| SYK | -0.25 | 0.86 |
| MAP3K19 | -0.336 | 0.847 |
| EFNA3 | 0.282 | 0.937 |
| DIS3 | 0.715 | 1 |
| BMPR1A | 0.715 | 1 |
